Reference: article PMC9792514, “C-type lectin-like receptor (CLEC)-2, the ligand of podoplanin, induces morphological changes in podocytes” (Scientific Reports, 2022)
No constants are given. Whether binding was seen depends on the method and setting. For part of these data: In cells and extracts the contact can be indirect. Some binding calls cover weakened binding; strength is not graded here. For part of these data: Tags and fused reporters may be left off the sequences shown.

The chains behind the UniProt entries cited, without tags or fusion partners. Residues count along the entry.
UniProt Q9P126, residues 51-229: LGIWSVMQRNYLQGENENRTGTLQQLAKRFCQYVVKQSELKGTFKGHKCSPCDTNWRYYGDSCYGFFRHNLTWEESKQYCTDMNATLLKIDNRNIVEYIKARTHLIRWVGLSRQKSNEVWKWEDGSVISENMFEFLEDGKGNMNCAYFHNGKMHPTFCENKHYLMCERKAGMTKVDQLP

Key:
[1] = target: Fc-CLEC-2, a fusion of the Fc tag and C-terminal extracellular domain of human CLEC-2 (51-229) (human) (UniProt Q9P126); assay: pull-down; Podocyte lysate (1.5 g/L, 50 uL, 1% Triton X-100) mixed with 3 ug of Fc-CLEC-2 or FLAG-CLEC-2 for 1 h at 4 C, captured on KANEKA KanCapA or Strep-Tactin Superflow plus beads, washed three times, blot with anti-PDPN antibody; only the target purified
[2] = target: T1, StepTagII-3FLAG-CLEC-2, a fusion of StrepTactin FLAG double tags and the C-terminal extracellular domain of mouse CLEC-2 (51-229) (mouse) (UniProt Q9JL99); assay: as above
T1 sequence: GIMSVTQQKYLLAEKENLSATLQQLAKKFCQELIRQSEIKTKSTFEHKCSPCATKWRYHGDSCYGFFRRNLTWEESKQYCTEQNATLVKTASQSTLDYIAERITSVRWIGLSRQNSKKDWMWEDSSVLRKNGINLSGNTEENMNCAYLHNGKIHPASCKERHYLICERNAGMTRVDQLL

[3] = target: T1, StepTagII-3FLAG-CLEC-2, a fusion of StrepTactin FLAG double tags and the C-terminal extracellular domain of mouse CLEC-2 (51-229) (mouse); assay: native gel or EMSA; Blue Native PAGE of the purified recombinant proteins in aqueous solution; both purified

| Binder | binding [1] | binding [2] | binding [3] |
| --- | --- | --- | --- |
| mouse podoplanin (PDPN) (protein, UniProt Q62011 23-172) GTIGVNEDDIVTPGTGDGMVPPGIEDKITTTGATGGLNESTGKAPLVPTQRERGTKPPLEELSTSATSDHDHREHESTTTVKVVTSHSVDKKTSHPNRDNAGDETQTTDKKDGLPVVTLVGIIVGVLLAIGFVGGIFIVVMKKISGRFSP | binds | binds | – |
| StepTagII-3FLAG-CLEC-2, a fusion of StrepTactin FLAG double tags and the C-terminal extracellular domain of mouse CLEC-2 (51-229) (domain or fragment, UniProt Q9JL99 51-229, looked up) GIMSVTQQKYLLAEKENLSATLQQLAKKFCQELIRQSEIKTKSTFEHKCSPCATKWRYHGDSCYGFFRRNLTWEESKQYCTEQNATLVKTASQSTLDYIAERITSVRWIGLSRQNSKKDWMWEDSSVLRKNGINLSGNTEENMNCAYLHNGKIHPASCKERHYLICERNAGMTRVDQLL | – | – | no binding |
